HELM strings list residues between dots; [ac] is acetyl, [am] amide, other brackets name non-standard units.
Assay: general procedure: Fmoc solid-phase peptide synthesis; Fmoc-Rink-Amide p-MBHA resin; TBTU/DIEA
Details: whole synthesis, scale of the general procedure 200 µmol; for final HPLC purity: 220 nm; for isolated yield: total yield

Substance | final HPLC purity | isolated yield
Cf-(VLRPPP)3-OH | 99% | 14.5%
Cf-HAIYPRH-NH2 | 99% | –
Cf-YTIWMPENPRPGTPCDIFTNSRGKRASNG-OH | >99% | 9.3%
H-VLRPPPVLRPPPVLRPPP-OH | 98% | 21.1%
PEPTIDE1{H.A.I.Y.P.R.H.[am]}$$$$V2.0 | 97% | 19.9%
PEPTIDE1{H.A.[NMeI].[NMeY].P.R.[NMeH].[am]}$$$$V2.0 | 97% | –
PEPTIDE1{Y.T.I.W.M.P.E.N.P.R.P.G.T.P.C.D.I.F.T.N.S.R.G.K.R.A.S.N.G}$$$$V2.0 | 98% | 7.0%
PEPTIDE1{[dH].[dR].[dP].[dY].[dI].[dA].[dH].[am]}$$$$V2.0 | >99% | –

From publication PMC6298966 (Scientific Reports, 2018)
